Results are given in words; binding and its absence hold for the method and conditions named. In cells and extracts the contact can be indirect. Binding can be weak; no strength is given.
Target: T1, DJ-1 (endogenous, mouse brain) (mouse (endogenous in mouse brain)) (UniProt Q99LX0)
T1 sequence: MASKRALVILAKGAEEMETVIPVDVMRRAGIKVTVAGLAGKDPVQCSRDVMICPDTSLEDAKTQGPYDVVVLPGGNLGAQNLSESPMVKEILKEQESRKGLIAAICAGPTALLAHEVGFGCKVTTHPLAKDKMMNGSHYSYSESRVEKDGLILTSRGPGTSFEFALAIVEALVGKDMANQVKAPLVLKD
Assay: co-IP; wild type or DJ-1 KO mouse brain lysates immunoprecipitated with DJ-1 antibody; endogenous MAP1b-LC detected by blot

binding: binds
Substance: MAP1b-LC (endogenous, mouse brain)
